The campaign covered roughly 1,300 compounds. About 110 (8.5%) were called active. No stated cut-off is given here; in the data, active means inhibition above about 6.5%; inactive means the rest. The entries are a selection whose mix differs from that of the whole data set.

The term inhibition denotes the change of the read-out against control, counted positive when it falls.

The assay is described as follows: quenching of GFP signal – biochemical, fluorescence, artefact control for Rin1-Abl interaction inhibitor project (AID 602125).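 Further: ABL1-eGFP fusion protein alone without its partner RIN1-SBP; 0% = protein with vehicle and 100% = wells lacking protein.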 The settings on record: inhibitors/quenchers counterscreen, at 6.75 µM, stronger effect = higher value.
In the case of `CSCCC(c1nnnn1C(C)(C)C)N1CCC(n2c(=O)[nH]c3ccccc32)CC1` (stereo unspecified), the inhibition was inactive: -1.5%.

(Values after PubChem BioAssay AID602125 (The Scripps Research Institute Molecular Screening Center, 2011).)
